Reference: patent US20240150465A1
No constants are given. Whether binding was seen depends on the method and setting. Some entries that bind do so weakly or less than the wild type.

By UniProt entry, the sequences of proteins in these tests, tags left out. Where a name states a change or a piece, a line headed by the entry shows the natural chain unless it says otherwise.
UniProt Q9NYJ7: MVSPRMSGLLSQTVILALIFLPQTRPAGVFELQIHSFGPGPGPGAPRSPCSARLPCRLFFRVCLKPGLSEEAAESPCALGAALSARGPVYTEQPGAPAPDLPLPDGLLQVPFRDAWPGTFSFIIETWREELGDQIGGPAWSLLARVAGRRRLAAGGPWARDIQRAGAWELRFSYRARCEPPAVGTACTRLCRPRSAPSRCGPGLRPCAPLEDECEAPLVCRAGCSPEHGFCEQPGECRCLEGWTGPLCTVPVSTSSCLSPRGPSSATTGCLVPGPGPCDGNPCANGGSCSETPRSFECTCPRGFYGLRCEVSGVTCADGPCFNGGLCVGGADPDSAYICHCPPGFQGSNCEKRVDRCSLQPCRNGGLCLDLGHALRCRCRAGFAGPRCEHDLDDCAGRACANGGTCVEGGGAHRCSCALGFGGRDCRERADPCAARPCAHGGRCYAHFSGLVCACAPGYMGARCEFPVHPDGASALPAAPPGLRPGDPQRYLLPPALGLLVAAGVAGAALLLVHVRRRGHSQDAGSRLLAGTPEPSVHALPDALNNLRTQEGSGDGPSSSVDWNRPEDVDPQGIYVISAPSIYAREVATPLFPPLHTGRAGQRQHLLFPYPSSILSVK

Molecular target: recombinant human DLL3 (human) (UniProt Q9NYJ7)
Assay: Octet RED384 epitope binning, competitor DL306-SG1

binding: binds
B1: D30841AE05-SG1 (antibody, human IgG1, kappa, V domains shown)
VH: QVQLKESGPALVKPTQTLTLTCTFSGFSLSSSYDMGWVRQAPGQGLEWMGTIYTGDYSTDYASWAKGRVTITADESTSTAYMELSSLRSEDTAVYYCARNTGYGYFGLWGQGTLVTVSS
VL: DIQLTQSPSFLSASVGDRVTITCQSTESVYGSDWLSWYQQKPGQPPKLLIYQASNLEIGVPSRFSGSGSGTDFTLTINSLEAEDAATYYCQGYYSGYIYAFGGGTKVEIKR
